In the DeepSol protein solubility set:

Experiment: soluble on expression in E. coli; label from the status in PepcDB or PDB records
For “EEEFLLSYIPAPKELKAVLDNYVIGQEQAKKVFSVAVYNHYKRLSFKEKLKKQDNQDSNVELEHLEEVELSKSNILLIGPTGSGKTLMAQTLAKHLDIPIAISDATSLTEAGYVGEDVENILTRLLQASDWNVQKAQKGIVFIDEIDKISRLSENRSITRDVSGEGVQQALLKIVEGSLVNIPPKGGRKHPEGNFIQIDTSDILFICAGAFDGLAEIIKKRTTQNVLGFTQEKMSKKEQEAILHLVQTHDLVTYGLIPELIGRLPVLSTLDSISLEAMVDILQKPKNALIKQYQQLFKMDEVDLIFEEEAIKEIAQLALERKTGARGLRAIIEDFCLDIMFDLPKLKGSEVRITKDCVLKQAEPLIIAKTHSKILP”, the “soluble on expression in E. coli” value was “soluble”. In the case of “GLDSPTGFDSSDITANSFTVHWVAPRAPITGYIIRHHAEHSVGRPRQDRVPPSRNSITLTNLNPGTEYVVSIIAVNGREESPPLIGQQATVSDIPRDLEVIASTPTSLLISWEPPAVSVRYYRITYGETGGNSPVQEFTVPGSKSTATINNIKPGADYTITLYAVTGRGDSPASSKPVSINYKT”, the “soluble on expression in E. coli” value is reported as “soluble”. In the case of “GSHMPLEFLRNQPQFQQMRQIIQQNPSLLPALLQQIGRENPQLLQQISQHQEHFIQMLNEPVQEAGGQGGGG”, the “soluble on expression in E. coli” value is reported as “soluble”. For “GSMSTRESFNPESYELDKSFRLTRFTELKGTGCKVPQDVLQKLLESLQENHFQEDEQFLGAVMPRLGIGMDTCVIPLRHGGLSLVQTTDYIYPIVDDPYMMGRIACANVLSDLYAMGVTECDNMLMLLGVSNKMTDRERDKVMPLIIQGFKDAAEEAGTSVTGGQTVLNPWIVLGGVATTVCQPNEFIMPDNAVPGDVLVLTKPLGTQVAVAVHQWLDIPEKWNKIKLVVTQEDVELAYQEAMMNMARLNRTAAGLMHTFNAHAATDITGFGILGHAQNLAKQQRNEVSFVIHNLPVLAKMAAVSKACGNMFGLMHGTCPETSGGLLICLPREQAARFCAEIKSPKYGEGHQAWIIGIVEKGNRTARIIDKPRIIEVAPQVATQNVNPTPGATS”, the “soluble on expression in E. coli” value was “soluble”. In the case of “GSSHHHHHHSSGLVPRGSHMSVHQVIELPAPAQPISVTMVTPADLEPPQAVQPPPEPVVEPEPEPEPIPEPPKEAPVVIEKPKPKPKPKPKPVKKVQEQPKRDVKPVESRPASPFENTAPARLTSSTATAATSKPVTSVASGPRALSRNQPQYPARAQALRIEGQVKVKFDVTPDGRVDNVQILSAKPANMFEREVKNAMRRWRYEPGKPGSGIVVNILFKINGTTEIQ”, the “soluble on expression in E. coli” value is reported as “soluble”. In the case of “MAANLSRNGPALQEAYVRVVTEKSPTDWALFTYEGNSNDIRVAGTGEGGLEEMVEELNSGKVMYAFCRVKDPNSGLPKFVLINWTGEGVNDVRKGACASHVSTMASFLKGAHVTINARAEEDVEPECIMEKVA”, the “soluble on expression in E. coli” value is reported as “soluble”. With “MAARPLVTVYDEKYEATQSQIRLPAVFRTPIRPDLVSFIADQVRRNRRQAHAVNTKAGKQHSAESWGTGRAVARIPRVRGGGTHRSGQGAFGNMCRGGHMFAPLKVFRRWHRNVNIAQKRYAVSSAIAASGIPALLQARGHVIDQVAEVPLVVSDKVESFRKTKEAVVFLRRSHLWADIEKVYNSKRNRAGKGKLRNRQHKQKLGPVVIYGQDAECARAFRNIPGVDVMNVERLNLLKLAPGGHLGRLIIWTESAFKKLDTIYGTTVANSSQLKKGWSVPLPIMANSDFSRIIRSEEVVKAIRAPKKNPVLPKVHRNPLKKRTLLYKLNPYASILRKASKANVKK” the “soluble on expression in E. coli” value was “not soluble”. In the case of “MGCRQNNERYIGPHAMEPRNDTGELLATFCETNRLWHTNSMFKKPMHKRWTFVSPDGNHRHEIDHILANGKFVTDTTVLPSFTNGSDHRLLRCNLHFNNCLAKLEQVRRRKPPKRVLDPAIAYAISATVTVQSDPDLDTDYDNLIQSLKELQDQAIVRPANHSSNRLSEETRKLLNKRRFMDRNDPQFKSISDKCREAVQKDHEAFASTRLLSAANQKKSLKRVARDINEYKSVIPCLKSTSTGERITSRVKMEQEIEKFYTELFKSAVSNSQTSSIPATATPPPFLPEEIRHVLRSFPNGKAAGQDKISADFLKSCHDNVIDLITDRFNRYLHSRNVPKPWKTSKTTLIFKKGDRENLENYRPICLLPVLYKVFTKCLLNRMRRSLDEAQPVEQAGFRRSFSTIDHIHSLQRLLEVGREYQIPLTLVFIDFKKAFDSVEHQAIWKSLDEQGADGAYIDLLKECYKNCTTNFTPFHRPVAVPVTKGVRQGDPISPNLFSACLEHVFRKLSWIELKGEAEDYDTIPGMRVNGRNLTNLRFADDIVLIANHPNIASKMLQELVQKCSEVGLEINTGKTKVLRNRFADPSKVYFGSPSPTTQLDDVDEYIYLGRQINAQNNLMPEIHRRRRAAWAAFNGIKNTTDSITDKKIRANLFDSIVLPALTYGSEAWTFTKALSERVRITHASLERRLVGITLTQQRERDLHREDIRTMSLVRDPLNFVKKRKLGWAGHVARRKDGRWTTLMTEWRPYGWKRPVGRPPMRWTDSLRKEITTRDADGEVITPWSTIAKDRKQWLAVIRRNTTNS”, the “soluble on expression in E. coli” value is reported as “not soluble”. With “MIRFILIQNRAGKTRLAKWYMQFDDDEKQKLIEEVHAVVTVRDAKHTNFVEFRNFKIIYRRYAGLYFCICVDVNDNNLAYLEAIHNFVEVLNEYFHNVCELDLVFNFYKVYTVVDEMFLAGEIRETSQTKVLKQLLMLQSLE” the “soluble on expression in E. coli” value was “soluble”. For “MKKLPVTVLSGFLGAGKTTLLNHILANRDGLRVALIVNDMSEINIDAALVRDGGANLSRTEEQLVEMTNGCICCTLRDDLLTEVRALAEQGRFDYLLIESTGIAEPLPVAATFDFRDENGRSLSDVAQLDTMVTVVDAANLLNDYGSSDFLADRGETAGDGDNRTIVDLLVEQIEFADVVVLNKIGTATPEERDAARKIIVGLNPDAKLIEADFGKVELKEVLGTGRFDFARAEEHPLWFKELHGFKDHIPETEEYGIRSFVYRAKKPFDPVLFQRFIDRAWPGVVRAKGFFWLATRPRYVGEISQAGALVRTGKMGLWWSAVPREQWPREKQFLDMMEPYLDPTFGDRRQEIVFIGSDPMSEARIRAQLDACLIDTEAFTPDAWRHLPDPFANWDRQAA”, the “soluble on expression in E. coli” value was “not soluble”. With “MKRMLINATQQEELRVALVDGQRLYDLDIESPGHEQKKANIYKGKITRIEPSLEAAFVDYGAERHGFLPLKEIAREYFPANYSAHGRPNIKDVLREGQEVIVQIDKEERGNKGAALTTFISLAGSYLVLMPNNPRAGGISRRIEGDDRTELKEALASLELPEGMGLIVRTAGVGKSAEALQWDLSFRLKHWEAIKKAAESRPAPFLIHQESNVIVRAFRDYLRQDIGEILIDNPKVLELARQHIAALGRPDFSSKIKLYTGEIPLFSHYQIESQIESAFQREVRLPSGGSIVIDSTEALTAIDINSARATRGGDIEETAFNTNLEAADEIARQLRLRDLGGLIVIDFIDMTPVRHQRAVENRLREAVRQDRARIQISHISRFGLLEMSRQRLSPSLGESSHHVCPRCSGTGTVRDNESLSLSILRLIEEEALKENTQEVHAIVPVPIASYLLNEKRSAVNAIETRQDGVRCVIVPNDQMETPHYHVLRVRKGEETPTLSYMLPKLHEEAMALPSEEEFAERKRPEQPALATFAMPDVPPAPTPAEPAAPVVAPAPKAAPATPATPAQPGLLSRFFGALKALFSGGEETKPTEQPAPKAEAKPERQQDRRKPRQNNRRDRNERRDTRSERTEGSDNREENRRNRRQAQQQTAETREGRQQAEVTEKARTADEQQAPRRERSRRRNDDKRQAQQEAKALNVEEQSVQETEQEERVRPVQPRRKQRQLNQKVRYEQSVAEETVVAPVAEETVAAEPIVQEAPAPRTELVKVPLPVVAQTAPEQQEENNADNRDNGGMPRRSRRSPRHLRVSGQRRRRYRDERYPTQSPMPLTVACASPELASGKVWIRYPIVRPQDVQVEEQREQEEVQVQPMVTEVPVAAAVEPVVSAPVVEEMAEVVEAPVPVAEPQPEVVETTHPEVIAAAVTEQPQVITESDVAVAQEVAEHAEPVVEPQEETADIEEVAETAEVVVAEPEVVAQPAAPVVAEVAAEVETVTAVKPEITVEHNHATAPMTRAPAPEYVPEAPRHSDWQRPTFAFEGKGAAGGHTATHHASAAPARPQPVE” the “soluble on expression in E. coli” value was “not soluble”. With “MNANDLFGGLSESSGSSDEDDDTVMPQPTGAHNVLADLELSDDDGDEDFSRDGMRSDENQISPGQESVPTPITPRAPVVFSLSDGEDSMDMPDIDQMMMKRNAAAAAAAAAEEQAAREAEADRVAEANRAAETAKTAEKRKIDKISKSEPPRKQPRHDDNSEAGPSGQISGDDDLLDTNISLESFDLSKVNDARYQALIQQHQPEEEAPGPSRPAPARPARKLDDEEENELSRLKTQVLLSNFSQEQLERYESYRRSSFQKSTIRRLISQYTGGVNVGQSVVIAIAGLAKVFVGEVVEEALDIRDINEEEASNPLQPHHIRQAFLRLGEQGKLFPPIGPKQSHLE” the “soluble on expression in E. coli” value was “not soluble”. For “MPAKAVCVLRGDVSGTVFFDQQDEKSPVVVSGEVQGLTKGKHGFHVHEFGDNTNGCTSAGAHFNPEKQDHGGPSSAVRHVGDLGNIEAIEDAGVTKVSIQDSQISLHGPNSIIGRTLVVHADPDDLGLGGNELSKTTGNAGGRIACGVIGLAKI”, the “soluble on expression in E. coli” value was “soluble”. In the case of “MPQLLQNINGIIEAFRRYARTEGNCTALTRGELKRLLEQEFADVIVKPHDPATVDEVLRLLDEDHTGTVEFKEFLVLVFKVAQACFKTLSESAEGACGSQESGSLHSGASQELGEGQRSGTEVGRAGKGQHYEGSSHRQSQQGSRGQNRPGVQTQGQATGSAWVSSYDRQAESQSQERISPQIQLSGQTEQTQKAGEGKRNQTTEMRPERQPQTREQDRAHQTGETVTGSGTQTQAGATQTVEQDSSHQTGRTSKQTQEATNDQNRGTETHGQGRSQTSQAVTGGHAQIQAGTHTQTPTQTVEQDSSHQTGSTSTQTQESTNGQNRGTEIHGQGRSQTSQAVTGGHTQIQAGSHTETVEQDRSQTVSHGGAREQGQTQTQPGSGQRWMQVSNPEAGETVPGGQAQTGASTEPGRQEWSSTHPRRCVTEGQGDRQPTVVGEEWVDDHSRETVILRLDQGNLHTSVSSAQGQDAAQSEEKRGITARELYSYLRSTKP”, the “soluble on expression in E. coli” value is reported as “soluble”. In the case of “MRLIKAFLVQLLLLPIFFYKRFISPLTPPSCRFTPSCSSYAIEALRKYGPGKGLLLSIKRILRCHPWGGSGYDPVPLEHHHHHH”, the “soluble on expression in E. coli” value is reported as “not soluble”. With “MRSDVIKKGIERAPHRSLFKAMGFTDEELERPLIGVANSFNELIPGHIHLRKIAEAVKAGIRMAGGTPLEFNTIGICDGIAMNHLGMKYSLPSRELIADSVELVARVYHFDGIVVIASCDKIIPGMLMAIARLNIPAIFVSGGPMLPGRFKGEYVDVKTVFEAVGAVKAGKMSYEELKLLENFACPGCGSCAGMFTANTMNALTEALGISLPWNGTAPAPYAHRIRIAKETGMQIVKLVEKDVKARDILTREAFEDAIAVDMALGGSTNTVLHLMAIANEAKVDLSLEDFDRISEKTPTLAKLSPAGKHFVVDLYEAGGILGVMKRLSELGLIHEDRLTVSLKTVGELLKSAFVSRDDVIRPVTNPYHPRGGIMILRGTLAPNGAVIKVSAVEGVEVFEGPAKVFDSEEEATAAILSGKIERGDVVVIRYEGPKGGPGMREMLTPTSAIAGMGLDKDVALVTDGRFSGATRGLSVGHVSPEAAEGGPIALVKDGDIIRIDLKNKRIDLLVDEEELRKRREEWKPKVKELTGYLKRYSTLVTSANTGAILRHLEHHHHHH” the “soluble on expression in E. coli” value was “not soluble”. For “MSLTAPHIVDPERLLREALGEASPDLLRHLLQTVINALLSADADAVCGAEYGKPSEHRTAQRNGYRHRPLDTRAGTIDVAIPKLRAGTYFPEWLLERRKRAESALITVVADCYLAGVSTRRMDKLVRQLGIDSLSKSQVSRMAQELDEHIEAFRHRPLGEAGPFVFLAADALTMKVREGGRVINAVAMVATGVNADGRREVLGLRVATTETGAAWNEFFADLVARGLAGVALVTSDSHRGLVEAVAANLPGAVWQRCRTHYAANLMAVTPKSMWPAVKAMLHSVYDQPDGPAVQAQFERLLDYVQDRLPAVAGHLDAAREDILAFTSFPRDVWSQIWSNNPAERLNREIRRRTDSVGIFPNRDAVVRLVGAVLAEQTDEWAEGRRYLGLELLARCREPLTTEQETVMSTEVMPTEGHHHHHH”, the “soluble on expression in E. coli” value was “soluble”.
